The other results are listed elsewhere or left out. Values are raw readings; no control value is given beside them.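 In the initial screen, polymyxin B was used at a concentration that permeabilizes Salmonella's outer membrane but not its inner membrane. Maximum growth was set by DMSO wells with or without polymyxin B. Since plates varied, data were ranked per plate, and compounds giving the lowest OD600 advanced as hits.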
Tested on: Salmonella enterica serovar Typhimurium SL1344
Assay: bacterial growth OD600 after 18 h with compound and polymyxin B; higher = more bacterial growth (less inhibition)
Details: 50 µM, Mueller-Hinton broth

| SMILES | bacterial growth OD600 (polymyxin B 0.75 µg/mL) | bacterial growth OD600 (polymyxin B 1 µg/mL) |
| --- | --- | --- |
| CC(C)Cn1cc(C(=O)NC(C)c2ccc(Cl)cc2)c(=O)c(C(=O)N2CCCCCC2)c1 (stereo not given) | 0.734 |  |
| COCc1ccc(CN2CCOc3ccc(C(O)Cc4ccccc4)cc3C2)o1 (stereo not given) | 0.794 |  |
| CC(C)c1csc(CN2CCC(CO)(CCCc3ccccc3)CC2)n1 |  | 0.581 |
| Cc1cc(C)n(CCNc2nncc(-c3ccccc3F)n2)n1 |  | 0.824 |
| COc1ccc(CN2CCN(C3CCCC3)CC2CCO)cc1C (stereo not given) |  | 0.922 |
| O=C(Nc1ccnn1C1CCN(Cc2c[nH]c3ccccc23)CC1)C1CCCC1 | 1.02 |  |
| COc1ccc(C(CC(=O)NCc2nc(C)cs2)c2ccccc2)cc1 (stereo not given) |  | 0.824 |
| O=C(Nc1cccc(N2CCC(NCCC(c3ccc(F)cc3)c3ccco3)CC2)c1)c1ccncc1 (stereo not given) | 0.672 |  |
| Cc1nc2ccccc2n1Cc1cc(C(=O)N2CCN(c3cnccn3)CC2)n[nH]1 |  | 0.871 |
| CCOC(=O)C1(CC2CC2)CCN(C(=O)CSc2nc3cc(C)ccc3[nH]2)CC1 |  | 0.027 |
| CO[C@H]1[C@H](NC(=O)Cc2cccs2)c2ccccc2C12CCN(CC#Cc1ccccc1)CC2 | 0.756 |  |
| COc1cccc(CN2CCC(C(Cc3ccccc3F)N(C)C(=O)c3ccoc3C)CC2)c1OC (stereo not given) | 0.724 |  |
| Cc1nc(CN(C)CC2(O)CCCN(CC3CCCCC3)C2=O)cs1 (stereo not given) |  | 1.01 |
| Cc1ccc(CN(C)C(=O)CC2C(=O)NCCN2Cc2cccc(F)c2)o1 (stereo not given) |  | 0.919 |
| Cc1c(-c2ccc(F)cc2)[nH]c2ccc(CNC(=O)CCN3CCCO3)cc12 |  | 0.733 |
| O=C(c1csnn1)N1CCc2ccc(NC(=O)C3(c4ccccc4)CC3)cc2C1 |  | 1.23 |
| COc1ccc(CN2CCN(Cc3ccccc3F)CC2CCO)cc1C (stereo not given) |  | 0.917 |
| O=C(CCc1ccncc1)N1CCCC(CCc2cccc(F)c2)C1 (stereo not given) | 0.006 |  |
| Cc1ncc2c(c1CNC(=O)c1ccsc1)CCN(C(=O)c1ccc(N3CCCCC3)cc1)C2 | 0.732 |  |
| COc1cc(C(=O)NCC(C)(C)CN(C)C)ccc1OC1CCN(C(C)=O)CC1 |  | 1.25 |
| Cc1nc(CN(C)C(=O)C2CCC(=O)N(CCc3ccccn3)C2)cs1 (stereo not given) |  | 1.28 |
| COC(C(=O)NCc1c(C)ncc2c1CCN(C(=O)c1cc3ccccc3o1)C2)c1ccccc1 (stereo not given) | 0.775 |  |
| CCN1CCCCC1C(=O)NCc1nc(-c2ccccc2NS(=O)(=O)Cc2ccccc2)oc1C (stereo not given) | 0.735 |  |
| COc1ccc(-c2nc(CN(Cc3ccccc3)CC3CC3)c(C)o2)cc1OC |  | 0.757 |
| COC(=O)C1CCN(Cc2cn(-c3ccccc3)nc2-c2cccc(OC)c2)CC1 |  | 0.868 |
| CCOc1ccccc1CN1CCCC(CCC(=O)NCc2ccc(OC)cc2OC)C1 (stereo not given) | 0.847 |  |
| COc1ccccc1OCC(=O)N1CCC2(CCCN(CCc3ccccc3)C2)C1 (stereo not given) |  | 0.012 |
| COCCCN1C(=O)CC(CC(=O)N2CCCC(C(=O)CC(C)C)C2)(c2ccccc2OC)C1=O (stereo not given) | 0.622 |  |
| Cc1csc(CNc2nncc(-c3ccc(F)cc3)n2)n1 |  | 0.931 |
| CCOC(=O)C1(Cc2cccc(OC)c2)CCN(Cc2nccn2CC)CC1 |  | 0.972 |

A different layout for part of the listing above:
SMILES | bacterial growth OD600 (polymyxin B 0.75 µg/mL) | bacterial growth OD600 (polymyxin B 1 µg/mL)
COc1ccccc1OCC(=O)N1CCC2(CCCN(CCc3ccccc3)C2)C1 (stereo not given) |  | 0.012
COCCCN1C(=O)CC(CC(=O)N2CCCC(C(=O)CC(C)C)C2)(c2ccccc2OC)C1=O (stereo not given) | 0.622 | 

From the supplement of paper PMC12889115
